Measurements reported in PubChem BioAssay AID504744 (Drosophila RNAi Screening Center, 2011).
In all, the deposit lists about 23,000 reagents; below is a random part of those that have a named target and a result. Over the whole deposit, 98 (0.43%) were called active. 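Only hit calls are given; the phospho-dAkt signals, z-scores and hit direction were not deposited.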 Reagents against one gene are numbered here. Names joined by + are all predicted targets of the reagent. No sequences are given here.

Aim: 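Find genes whose loss alters insulin-driven dAkt phosphorylation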 (primary screen)
Cell system: Drosophila Kc167 cells
Reagent: long dsRNA against Drosophila genes, 250 ng dsRNA per well of a 384-well plate
Time to read-out: 3 days of knock-down, then overnight serum-free starvation before stimulation
Challenge: bovine insulin at 387 nM for 10 minutes after 12 h without serum
Read-out: 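In-cell antibody fluorescence for phospho-dAkt in each well over DNA-dye signal, with log2 residuals expressed as z-scores adjusted for cell count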
Rule for the call: 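Hit in the insulin screen when the two-replicate mean z-score is more extreme than plus or minus 2.5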

The first 7 entries, to show the layout:
no.	target gene	dsRNA no.	Call
1	Sc2	1	inactive
2	CG9123	1	inactive
3	abd-A	1	inactive
4	abd-A	2	inactive
5	CG17637	1	inactive
6	CG31627	1	inactive
7	zetaTry	1	inactive

Main list, from the start:
no.	target gene	dsRNA no.	Call
1	Sc2	1	inactive
2	CG9123	1	inactive
3	abd-A	1	inactive
4	abd-A	2	inactive
5	CG17637	1	inactive
6	CG31627	1	inactive
7	zetaTry	1	inactive
8	sol	1	inactive
9	Cyp12b2	1	inactive
10	dar1	1	inactive
11	dar1	2	inactive
12	S2P	1	inactive
13	Acp53C14c	1	inactive
14	lok	1	inactive
15	PSMG1	1	inactive
16	tilB	1	inactive
17	Cp7Fa	1	inactive
18	Cp7Fa	2	inactive
19	PH4alphaSG1	1	inactive
20	CG11404	1	inactive
21	CG15118	1	inactive
22	CG13403	1	inactive
23	Scp1	1	inactive
24	Scp1	2	inactive
25	Scp1	3	inactive
26	CG8501	1	inactive
27	kud	1	inactive
28	Arpc5	1	inactive
29	CG6900 (retired record)	1	inactive
30	Src64B	1	inactive
31	Rab6	1	inactive
32	l(2)k01209	1	inactive
33	CG14795	1	inactive
34	betaTub56D	1	inactive
35	CG14070	1	inactive
36	hec	1	inactive
37	CG4678	1	inactive
38	CG4678	2	inactive
39	Hus1-like	1	inactive
40	jigr1	1	inactive
41	jigr1	2	inactive
42	jigr1	3	inactive
43	NANS	1	inactive
44	beat-IIIb	1	inactive
45	CG12012	1	inactive
46	CG9106	1	inactive
47	CG9344	1	inactive
48	ppk14	1	inactive
49	Rbcn-3A	1	inactive
50	Rpt6	1	inactive
51	Amnionless	1	inactive
52	CG8008	1	inactive
53	S6k	1	inactive
54	Pgam5	1	inactive
55	cmet	1	inactive
56	CG2120	1	inactive
57	CG12725	1	inactive
58	CG7215 + Prx5	1	inactive
59	CG7215 + Prx5	2	inactive
60	Sf3a1	1	inactive
61	ArfGAP3	1	inactive
62	strat	1	inactive
63	CG32225	1	inactive
64	FIG4	1	inactive
